{"source": "patent US20110318412A1", "about": "“LOW DOSE DOXEPIN FORMULATIONS, INCLUDING BUCCAL, SUBLINGUAL AND FASTMELT FORMULATIONS, AND USES OF THE SAME TO TREAT INSOMNIA” (Somaxon Pharmaceuticals, Inc., priority 2006, published 2011)", "origin": "cited, not measured here", "details": "Wu-Benet, 2005; cited from earlier work", "note": "Structures can show the parent of a compound that is named as a salt. The name of at least one read-out is uncertain."}
{"smiles": "CN(C)CCC=C1c2ccccc2COc2ccccc21", "note": "(mixture of isomers) [doxepin hydrochloride]", "values": [{"measurement": "permeability (Biopharmaceutic Classification System)", "result": "high permeability"}]}
